Earlier results, collected in patent US5712265A (The General Hospital Corporation, priority 1995, dated 1998).

Settings: 3.0 and 6.0 μg/kg intramuscularly; cited from earlier work

## CN1[C@@H]2C[C@@H](OC(=O)[C@H](CO)c3ccccc3)C[C@H]1[C@@H]1O[C@@H]12 [scopolamine]
  nocturnal plasma cortisol concentrations: did not affect
